# PubChem BioAssay AID652243 | Drosophila RNAi Screening Center, 2013
# Assay: 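Knock-downs that decrease or increase androgen receptor reporter signal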 (primary screen)
# Cell system: Drosophila S2R+ cells
# Reagent: long dsRNA against Drosophila genes
# Duration: 72 h (48 h, then 24 h hormone)
# Challenge: synthetic androgen R1881 at 10 nM for 24 h
# Detection: 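Firefly light from an androgen-responsive reporter and Renilla control light per well, raw and unnormalised, for each of two replicates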
# Reading the numbers: firefly reporter light: higher = more light from androgen-responsive reporter; Renilla control light: higher = more constitutive control signal (cell number, transfection)
# Call rule: 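Hit when the log firefly-to-Renilla ratio dropped or increased by a fixed fold versus the mean of GFP or LacZ controls across duplicate plates; lowering cut given as 1.5 and as 3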
# Meaning of the calls: active = hit: reporter lowered or raised; inactive = no hit
# The deposit covers about 24,000 reagents; below is a random part of those with a known target gene and a result. Over the whole deposit, 246 (1%) got an active call. 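Plates not normalised; calls are printed but the firefly/Renilla ratio behind them is not deposited; fold cut for lowering reported inconsistently.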 Raw values are not corrected between plates. Entries without a mark were called inactive. Names joined by + are all predicted targets of the reagent. No sequences are given here. Not given: the amount of reagent.
predicted target,DRSC id,"firefly reporter light, replicate 1","firefly reporter light, replicate 2","Renilla control light, replicate 1","Renilla control light, replicate 2"
CG13786,DRSC02289,2.65e5,2.17e5,2.27e6,1.83e6
CG13786,DRSC27762,1.73e5,2.24e5,3.52e5,8.10e5
CG43342,DRSC13561,2.07e5,1.50e5,1.81e5,2.76e5
CG12134,DRSC06109,3.73e5,2.12e5,2.96e6,2.62e6
CG12134,DRSC24332,9.46e5,8.81e5,1.16e6,1.14e6
CG15452,DRSC20523,2.52e5,1.75e5,9.61e5,7.04e5
CG32576,DRSC19136,9.85e5,7.96e5,1.45e6,1.03e6
CG12129,DRSC06105,1.34e6,1.30e6,1.66e6,1.51e6
Muc30E (Mucin 30E),DRSC01101,4.18e5,4.03e5,2.11e6,2.43e6
Muc30E (Mucin 30E),DRSC28881,4.32e5,6.70e5,1.07e6,1.12e6
CG6041,DRSC18396,3.77e5,2.19e5,2.67e6,1.91e6
CG6041,DRSC24234,6.91e5,6.23e5,9.27e5,9.17e5
CG43088,DRSC21407,5.26e5,6.55e5,2.36e6,2.13e6
snRNA:U12 (small nuclear RNA U12),DRSC37892,6.71e5,6.26e5,1.26e6,1.19e6
Patsas,DRSC02975,1.56e6,7.22e5,2.64e6,1.80e6
Patsas,DRSC28826,4.52e5,4.40e5,1.09e6,1.21e6
CSN8 (COP9 signalosome subunit 8),DRSC02257,7.39e5,8.28e5,2.55e6,2.57e6

5 entries from above, reformatted:
{"predicted target":"Muc30E (Mucin 30E)","DRSC id":"DRSC01101","firefly reporter light, replicate 1":4.18e5,"firefly reporter light, replicate 2":4.03e5,"Renilla control light, replicate 1":2.11e6,"Renilla control light, replicate 2":2.43e6}
{"predicted target":"Muc30E (Mucin 30E)","DRSC id":"DRSC28881","firefly reporter light, replicate 1":4.32e5,"firefly reporter light, replicate 2":6.70e5,"Renilla control light, replicate 1":1.07e6,"Renilla control light, replicate 2":1.12e6}
{"predicted target":"CG6041","DRSC id":"DRSC18396","firefly reporter light, replicate 1":3.77e5,"firefly reporter light, replicate 2":2.19e5,"Renilla control light, replicate 1":2.67e6,"Renilla control light, replicate 2":1.91e6}
{"predicted target":"CG6041","DRSC id":"DRSC24234","firefly reporter light, replicate 1":6.91e5,"firefly reporter light, replicate 2":6.23e5,"Renilla control light, replicate 1":9.27e5,"Renilla control light, replicate 2":9.17e5}
{"predicted target":"CG43088","DRSC id":"DRSC21407","firefly reporter light, replicate 1":5.26e5,"firefly reporter light, replicate 2":6.55e5,"Renilla control light, replicate 1":2.36e6,"Renilla control light, replicate 2":2.13e6}

The results go on:
predicted target,DRSC id,"firefly reporter light, replicate 1","firefly reporter light, replicate 2","Renilla control light, replicate 1","Renilla control light, replicate 2"
betaTub97EF (beta-Tubulin at 97EF),DRSC15666,2.20e5,1.97e5,2.48e6,2.66e6
betaTub97EF (beta-Tubulin at 97EF),DRSC15667,1.73e5,1.98e5,2.38e6,2.72e6
betaTub97EF (beta-Tubulin at 97EF),DRSC15668,1.58e5,1.70e5,2.26e6,2.80e6
ppk21 (pickpocket 21),DRSC14466,1.86e5,2.30e5,1.42e6,1.66e6
Miox (Myo-inositol oxygenase),DRSC10747,2.78e5,3.15e5,2.60e6,2.48e6
Miox (Myo-inositol oxygenase),DRSC24306,1.08e6,9.23e5,9.99e5,1.15e6
CG8369,DRSC16413,91086,94287,1.27e6,1.26e6
Amy-d + Amy-p,DRSC21242,4.32e5,3.17e5,4.05e5,3.84e5
Amy-d + Amy-p,DRSC24129,6.23e5,9.84e5,6.49e5,6.66e5
Adgf-B (Adenosine deaminase-related growth factor B),DRSC10568,1.60e5,1.62e5,1.84e6,2.10e6
Adgf-B (Adenosine deaminase-related growth factor B),DRSC24118,9.05e5,8.29e5,1.15e6,1.06e6
Wnt10 (Wnt oncogene analog 10),DRSC02797,1.77e5,1.61e5,1.65e6,1.43e6
Wnt10 (Wnt oncogene analog 10),DRSC29973,4.35e5,3.86e5,1.19e6,1.21e6
TotF (Turandot F),DRSC02305,1.18e5,1.49e5,1.63e6,1.69e6
CG15046,DRSC19622,7.17e5,9.07e5,3.43e6,3.32e6
CG15576,DRSC18064,2.42e5,2.67e5,4.11e6,2.34e6
eEF1delta (eukaryotic translation elongation factor 1 delta),DRSC02790,7.97e5,7.67e5,1.42e6,1.69e6
eEF1delta (eukaryotic translation elongation factor 1 delta),DRSC26084,3.58e5,2.55e5,7.38e5,7.37e5
Cad86C (Cadherin 86C),DRSC15587,1.28e5,1.93e5,3.02e6,3.67e6
Cad86C (Cadherin 86C),DRSC15611,1.83e5,2.33e5,2.63e6,2.07e6
Cad86C (Cadherin 86C),DRSC27602,2.64e5,2.42e5,4.38e5,6.43e5
Cad86C (Cadherin 86C),DRSC28094,9.12e5,1.13e6,1.41e6,1.53e6
CG4318,DRSC19887,4.89e5,6.39e5,4.59e6,5.44e6
